This is one part of the list.
Test: Confirmatory growth inhibition assay, mycobacterium tuberculosis h37rv, with cytotoxicity (AID 1332);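 also: bacteria incubated 7 days before adding Alamar blue readout reagent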
Conditions: M. tuberculosis H37Rv growth inhibition; measured here: IC50 H37Rv replicates

Row | Structure (SMILES) | IC50
1 | C/C1=C2N=C(/C=C3N=C(/C(C)=C4\[N-][C@@](C)([C@@H]5N=C1[C@](C)(CCC(=O)NC[C@@H](C)OP(=O)([O-])O[C@H]1[C@@H](O)[C@@H](n6cnc7cc(C)c(C)cc76)O[C@@H]1CO)[C@H]5CC(N)=O)[C@@](C)(CC(N)=O)[C@@H]4CCC(N)=O)[C@@](C)(CC(N)=O)[C@@H]\3CCC(N)=O)C(C)(C)[C@@H]/2CCC(N)=O.[C-]#N.[Co+3] | > 20 µg/mL
2 | NC(=O)Nc1ccc([As](=O)(O)O)cc1 | > 20 µg/mL
